The target in test [1] is T1, Mac-1 (neutrophil integrin) (mouse (endogenous in bone marrow neutrophils)) (UniProt P05555+P11835). The test is described as follows: co-IP; lysates of mouse bone marrow-derived neutrophils stimulated with LTB4; incubated overnight with an anti-Mac-1 mAb and immunoprecipitated; JAM-C and NE detected by Western blot.
Test [2] addresses T1, Mac-1 (neutrophil integrin) (mouse (endogenous in bone marrow neutrophils)). Nature of the test: condition: only neutrophils not stimulated with LTB4; co-IP; lysates of unstimulated (control) mouse bone marrow-derived neutrophils; incubated overnight with an anti-Mac-1 mAb and immunoprecipitated; JAM-C and NE detected by Western blot.

Amino acid sequences for entries named in this document (tags omitted). A change or cut given only in a name is not applied to a line headed by its entry.
UniProt P05555: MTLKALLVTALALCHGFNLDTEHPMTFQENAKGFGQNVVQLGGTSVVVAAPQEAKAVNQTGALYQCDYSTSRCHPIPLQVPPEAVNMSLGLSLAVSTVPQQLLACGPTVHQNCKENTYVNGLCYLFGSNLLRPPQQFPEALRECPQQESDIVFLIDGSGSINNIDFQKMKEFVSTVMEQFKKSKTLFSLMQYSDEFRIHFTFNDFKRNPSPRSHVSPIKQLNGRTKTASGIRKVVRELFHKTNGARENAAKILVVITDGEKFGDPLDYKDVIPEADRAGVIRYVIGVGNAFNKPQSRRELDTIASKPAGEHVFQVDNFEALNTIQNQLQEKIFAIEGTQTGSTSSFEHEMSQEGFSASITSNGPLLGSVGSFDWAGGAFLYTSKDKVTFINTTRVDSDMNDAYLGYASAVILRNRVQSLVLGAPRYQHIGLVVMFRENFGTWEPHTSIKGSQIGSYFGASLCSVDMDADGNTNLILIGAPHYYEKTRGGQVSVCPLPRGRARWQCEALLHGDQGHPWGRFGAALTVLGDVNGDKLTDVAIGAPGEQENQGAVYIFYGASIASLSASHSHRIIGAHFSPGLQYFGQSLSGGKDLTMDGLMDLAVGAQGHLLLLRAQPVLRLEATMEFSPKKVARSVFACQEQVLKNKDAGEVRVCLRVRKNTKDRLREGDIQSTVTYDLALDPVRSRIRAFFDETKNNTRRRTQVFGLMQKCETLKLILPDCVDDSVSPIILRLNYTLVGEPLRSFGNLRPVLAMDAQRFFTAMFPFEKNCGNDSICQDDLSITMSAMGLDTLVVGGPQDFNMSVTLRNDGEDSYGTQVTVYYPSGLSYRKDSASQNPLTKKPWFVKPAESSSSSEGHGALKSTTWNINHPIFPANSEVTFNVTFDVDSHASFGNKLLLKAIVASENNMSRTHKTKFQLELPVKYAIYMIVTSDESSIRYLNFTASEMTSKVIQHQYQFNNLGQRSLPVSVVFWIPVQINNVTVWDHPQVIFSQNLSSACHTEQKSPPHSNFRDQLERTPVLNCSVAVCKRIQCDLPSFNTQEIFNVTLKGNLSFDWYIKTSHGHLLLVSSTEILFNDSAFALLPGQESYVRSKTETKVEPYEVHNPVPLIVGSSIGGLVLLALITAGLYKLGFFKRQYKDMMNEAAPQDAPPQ
UniProt P11835: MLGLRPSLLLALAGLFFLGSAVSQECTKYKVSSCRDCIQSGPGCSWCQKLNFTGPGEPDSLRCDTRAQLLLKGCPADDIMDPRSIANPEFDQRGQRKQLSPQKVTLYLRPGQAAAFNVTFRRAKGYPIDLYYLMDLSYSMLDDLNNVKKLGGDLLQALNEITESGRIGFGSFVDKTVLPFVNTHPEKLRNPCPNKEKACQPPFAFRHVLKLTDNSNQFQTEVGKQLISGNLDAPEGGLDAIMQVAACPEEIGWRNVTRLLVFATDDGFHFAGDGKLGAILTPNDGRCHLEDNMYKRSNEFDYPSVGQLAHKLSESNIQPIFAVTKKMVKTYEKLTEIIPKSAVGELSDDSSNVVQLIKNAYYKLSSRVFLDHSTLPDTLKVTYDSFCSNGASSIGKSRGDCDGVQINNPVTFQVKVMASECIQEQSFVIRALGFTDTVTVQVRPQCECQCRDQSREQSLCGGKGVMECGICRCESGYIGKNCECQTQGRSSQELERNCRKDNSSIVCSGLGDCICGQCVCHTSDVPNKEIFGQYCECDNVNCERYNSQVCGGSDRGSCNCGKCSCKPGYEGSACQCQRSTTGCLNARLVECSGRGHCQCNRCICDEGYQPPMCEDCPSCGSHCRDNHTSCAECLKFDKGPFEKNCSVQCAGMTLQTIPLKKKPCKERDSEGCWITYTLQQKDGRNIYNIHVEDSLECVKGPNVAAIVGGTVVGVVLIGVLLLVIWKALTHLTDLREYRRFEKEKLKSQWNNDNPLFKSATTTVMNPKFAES

These are yes or no findings as the source states them, for the method shown. In cells and extracts the contact can be indirect. Some results given as binding are weak or reduced against the parent protein; the word gives no strength.

B1: neutrophil elastase (enzyme, UniProt Q3UP87 27-265)
chain: SEIVGGRPARPHAWPFMASLQRRGGHFCGATLIARNFVMSAAHCVNGLNFRSVQVVLGAHDLRRQERTRQTFSVQRIFENGFDPSQLLNDIVIIQLNGSATINANVQVAQLPAQGQGVGDRTPCLAMGWGRLGTNRPSPSVLQELNVTVVTNMCRRRVNVCTLVPRRQAGICFGDSGGPLVCNNLVQGIDSFIRGGCGSGLYPDAFAPVAEFADWINSIIRSHNDHLLTHPKDREGRTN
As for B1, the binding result in test [1] was “binds”; in test [2], “no binding”.

(Values after PMC4504024.)
